According to publication PMC7667862:
These are yes or no findings as the source states them, for the method shown. In cells and extracts the contact can be indirect.

The chains behind the UniProt entries cited, without tags or fusion partners.
UniProt Q99558: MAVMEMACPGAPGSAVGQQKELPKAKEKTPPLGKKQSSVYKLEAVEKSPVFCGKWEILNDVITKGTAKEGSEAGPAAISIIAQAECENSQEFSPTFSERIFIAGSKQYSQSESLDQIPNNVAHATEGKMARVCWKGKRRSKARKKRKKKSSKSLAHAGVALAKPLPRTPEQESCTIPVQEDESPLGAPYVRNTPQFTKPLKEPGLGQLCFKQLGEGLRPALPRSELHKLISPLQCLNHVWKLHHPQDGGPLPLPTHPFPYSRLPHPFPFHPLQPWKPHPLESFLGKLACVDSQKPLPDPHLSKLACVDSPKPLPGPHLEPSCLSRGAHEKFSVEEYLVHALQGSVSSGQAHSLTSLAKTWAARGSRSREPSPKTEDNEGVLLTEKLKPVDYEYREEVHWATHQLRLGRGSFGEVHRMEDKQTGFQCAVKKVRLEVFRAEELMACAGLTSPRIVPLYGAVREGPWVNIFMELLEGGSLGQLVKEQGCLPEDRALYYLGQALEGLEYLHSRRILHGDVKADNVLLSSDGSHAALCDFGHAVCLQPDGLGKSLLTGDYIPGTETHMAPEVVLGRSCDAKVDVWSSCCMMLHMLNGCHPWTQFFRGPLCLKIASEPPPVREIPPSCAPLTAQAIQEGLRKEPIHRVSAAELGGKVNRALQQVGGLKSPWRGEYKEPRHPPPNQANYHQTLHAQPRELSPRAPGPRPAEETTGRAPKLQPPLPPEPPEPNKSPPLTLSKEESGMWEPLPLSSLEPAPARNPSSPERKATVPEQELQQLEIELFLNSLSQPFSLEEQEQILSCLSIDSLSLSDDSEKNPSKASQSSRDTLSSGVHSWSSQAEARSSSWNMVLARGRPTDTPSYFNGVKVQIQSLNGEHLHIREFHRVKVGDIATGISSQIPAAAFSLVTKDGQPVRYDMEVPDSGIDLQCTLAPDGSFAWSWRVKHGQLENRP
UniProt Q6GQQ9: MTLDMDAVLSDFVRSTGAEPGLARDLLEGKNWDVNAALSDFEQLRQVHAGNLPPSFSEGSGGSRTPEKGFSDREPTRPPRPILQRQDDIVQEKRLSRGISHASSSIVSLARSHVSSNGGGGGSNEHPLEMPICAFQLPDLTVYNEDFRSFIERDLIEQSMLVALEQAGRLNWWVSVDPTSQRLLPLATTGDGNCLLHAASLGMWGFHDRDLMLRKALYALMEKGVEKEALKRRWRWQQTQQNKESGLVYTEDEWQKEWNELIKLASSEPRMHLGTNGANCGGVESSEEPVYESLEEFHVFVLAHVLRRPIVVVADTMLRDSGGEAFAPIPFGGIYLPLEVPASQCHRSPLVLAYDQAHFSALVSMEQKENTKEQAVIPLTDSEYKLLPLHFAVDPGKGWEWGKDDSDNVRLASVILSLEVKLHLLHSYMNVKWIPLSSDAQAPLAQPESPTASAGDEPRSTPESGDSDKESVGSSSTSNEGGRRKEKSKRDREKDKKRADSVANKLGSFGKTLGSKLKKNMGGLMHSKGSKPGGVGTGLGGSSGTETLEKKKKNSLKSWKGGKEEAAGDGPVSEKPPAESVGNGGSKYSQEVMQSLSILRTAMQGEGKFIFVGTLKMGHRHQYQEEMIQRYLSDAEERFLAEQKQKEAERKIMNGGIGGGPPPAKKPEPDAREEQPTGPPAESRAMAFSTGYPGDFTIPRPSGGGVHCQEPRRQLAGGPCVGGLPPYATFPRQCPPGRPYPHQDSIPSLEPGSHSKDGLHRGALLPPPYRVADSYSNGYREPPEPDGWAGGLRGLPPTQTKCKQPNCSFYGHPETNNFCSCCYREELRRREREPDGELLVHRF

Molecular target: Myc-NIK (NF-κB-inducing kinase) (UniProt Q99558)
Test: co-IP; H1299 cells cotransfected with two tagged plasmids for 48 h; reciprocal co-immunoprecipitation with anti-Flag, anti-Myc and anti-HA antibodies, western blotting

HA-tagged OTUD7B (OTU domain-containing 7B) (from UniProt Q6GQQ9 1-843) (enzyme)
binding: no binding
